Measured values as given in patent US7282344B2, “Cation conducting GABAA receptors and their use” (Neurosearch A/S, priority 2001, dated 2007).

Test system: CHO-K1 cells expressing GABAA receptors
Assay: Whole cell patch clamp, reversal potentials of GABA-activated currents
Format: cell-based, human

How did the “Vrev Na-R” value (extracellular solution 140 mM NaCl, GABA-activated currents) turn out when “α2 β3 γ2: wild-type human GABAA receptor of α2, β3 and γ2 subunits expressed in CHO-K1 cells” was run?
The value was 1.3 ± 0.7 mV ± SEM.

What about the “Vrev Gluconate-R” value (low chloride extracellular solution (Gluconate-R)) of the same substance?
Its value is 33.5 ± 2.4 mV ± SEM.

What about the “Vrev NMDG-R” value (low sodium extracellular solution (NMDG-R)) of the same substance?
The value was 0.8 ± 2.0 mV ± SEM.

What about the “Conductance indicated by shift in reversal potential” value (shift from Na-R to Gluconate-R or NMDG-R) of the same substance?
The value was “chloride conductance”.
